# Results from one PubChem assay

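A panel of P. falciparum strains inside erythrocytes is exposed to compounds for three days, then a DNA-binding dye reports the amount of parasite DNA. Each compound was titrated across a series from about 0.000037 to 29 µM. The number is the fitted AC50, the concentration giving a half-maximal change in signal; a lower value means higher potency, whether the curve shows a decrease or an increase. Calls follow the curve class and fit quality: every row here is inconclusive, covering signal-raising curves and weak, poorly fitted, partial or highest-dose-only inhibition curves.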

Values are in µM. Every entry below has the call inconclusive. Only part of the assay is shown, chiefly results filed as inconclusive. A potency from a partial, single-point or poor curve is only a rough figure. Some entries filed as inconclusive have a full curve. The first word of each remark tells which way the curve ran; it can be opposite to the aim of the assay.

| # | Compound | tested on / at | potency (µM) | curve as filed |
|---|---|---|---|---|
| 1 | `CCCCC(CC)CN=C(N)NC(N)=NCCCCCCN=C(N)NC(N)=NCC(CC)CCCC` (stereo not given) | CP266 | 2.133 | inhibitor, partial curve |
| 2 | `C1CCC(NC2CCCCC2)CC1` | CP256 | 17.78 | inhibitor, single point |
| 3 | `CCCCCCC(=O)CCCCCC/C=C/C[C@@H](O)[C@H](O)[C@@](N)(CO)C(=O)O` | CP250 | 1.995 | inhibitor, single point |
| 4 | `CCCCCCC(=O)CCCCCC/C=C/C[C@@H](O)[C@H](O)[C@@](N)(CO)C(=O)O` | W2 | 0.0953 | inhibitor, full curve, poor fit |
| 5 | `O=C(Nc1ncc([N+](=O)[O-])s1)c1cccs1` | CP266 | 0.0151 | inhibitor, full curve, poor fit |
| 6 | `C[C@H](O)C(=O)Nc1c(I)c(C(=O)NC(CO)CO)c(I)c(C(=O)NC(CO)CO)c1I` | CP315 | 2.031 | inhibitor, single point |
| 7 | `O=C1CCO1` | PC15 | 14.13 | activator, partial curve, poor fit |
| 8 | `Cc1ccc(C(C)(C)c2ccc(C)cc2)cc1` | DIV14 | 4.776 | inhibitor, partial curve, poor fit |
| 9 | `CC(=O)Oc1ccccc1C(=O)O` | PC26 | 0.0005 | inhibitor |
| 10 | `CCOc1ccc(NC(=O)CC(C)O)cc1` (stereo not given) | W2 | 0.6012 | inhibitor, partial curve, poor fit |
| 11 | `NCC(=O)CCC(=O)O` | CP297 | 0.0015 | inhibitor, full curve, poor fit |
| 12 | `CC(C)(C)C(=O)NCCCC(=O)O` | CP260 | 10 | inhibitor, single point |
| 13 | `CC(C)(C)C(=O)NCCCC(=O)O` | CP211 | 21.33 | inhibitor, single point |
| 14 | `CCN(CC)CCNC(=O)c1ccc(NC(C)=O)cc1` | CP266 | 0.0085 | inhibitor, full curve, poor fit |
| 15 | `O=C(O)c1ccccc1Nc1cccc(C(F)(F)F)c1` | CP191 | 0.7943 | inhibitor, full curve |
| 16 | `O=C(O)c1ccccc1Nc1cccc(C(F)(F)F)c1` | CP192 | 12 | inhibitor, single point |
| 17 | `O=C(O)c1ccccc1Nc1cccc(C(F)(F)F)c1` | DIV14 | 0.0005 | inhibitor |
| 18 | `CCc1ncnc2cc(OC)c(OC)cc12` | CP260 | 17.78 | inhibitor, single point |
| 19 | `C=CCc1cc(OC)c(O)c(C(=O)NCCO)c1` | CP291 | 15.1 | activator, partial curve, poor fit |
| 20 | `OCCN1CCN(CCCN2c3ccccc3C=Cc3ccccc32)CC1` | CP201 | 15.1 | inhibitor, partial curve, poor fit |
| 21 | `OCCN1CCN(CCCN2c3ccccc3C=Cc3ccccc32)CC1` | CP315 | 15.1 | inhibitor, single point |
| 22 | `OCCN1CCN(CCCN2c3ccccc3C=Cc3ccccc32)CC1` | CP329 | 15.1 | inhibitor, partial curve, poor fit |
| 23 | `OCCN1CCN(CCCN2c3ccccc3C=Cc3ccccc32)CC1` | JCK | 11.22 | inhibitor, single point |
| 24 | `OCCN1CCN(CCCN2c3ccccc3C=Cc3ccccc32)CC1` | FAB9 | 17.78 | inhibitor, single point |
| 25 | `NC(=O)OCCCc1ccccc1` | CP203 | 0.0015 | activator, full curve, poor fit |
| 26 | `O=S(=O)(O)CCS` | CP260 | 17.78 | inhibitor, single point |
| 27 | `CN(Cc1ccccc1)Cc1ccccc1` | W2 | 19.01 | inhibitor, single point |
| 28 | `CN(Cc1ccccc1)Cc1ccccc1` | CP260 | 12.59 | inhibitor, single point |
| 29 | `O=C(OCC1OC(OC(=O)c2cc(O)c(O)c(OC(=O)c3cc(O)c(O)c(O)c3)c2)[C@@H](OC(=O)c2cc(O)c(O)c(OC(=O)c3cc(O)c(O)c(O)c3)c2)C(OC(=O)c2cc(O)c(O)c(OC(=O)c3cc(O)c(O)c(O)c3)c2)C1OC(=O)c1cc(O)c(O)c(OC(=O)c2cc(O)c(O)c(O)c2)c1)c1cc(O)c(O)c(OC(=O)c2cc(O)c(O)c(O)c2)c1` (stereo not given in full) | CP291 | 3.381 | inhibitor, full curve, poor fit |
| 30 | `O=C1c2ccccc2C(=O)C1c1ccc(F)cc1` | W2 | 19.01 | inhibitor, partial curve, poor fit |
| 31 | `CCN(C)C(=O)Oc1cccc([C@H](C)N(C)C)c1` | CP203 | 0.0169 | inhibitor, full curve, poor fit |
| 32 | `Cc1nc(NS(=O)(=O)c2ccc(N)cc2)nc(C)c1Br` | CP262 | 9.528 | activator, partial curve, poor fit |
| 33 | `Cc1nc(NS(=O)(=O)c2ccc(N)cc2)nc(C)c1Br` | CP260 | 12.59 | inhibitor, single point |
| 34 | `Nc1nc(F)nc2c1ncn2[C@@H]1O[C@H](CO)[C@@H](O)[C@H]1O` | CP305 | 0.0005 | inhibitor |
| 35 | `C=CCOc1ccc(CC(=O)O)cc1Cl` | CP335 | 4.256 | inhibitor, single point |
| 36 | `COc1ccccc1N1CCNCC1` | CP260 | 12.59 | inhibitor, single point |
| 37 | `O=C1C(c2[nH]c3ccccc3c2O)=Nc2ccccc21` | W2 | 19.01 | inhibitor, single point |
| 38 | `NC1=NCC2c3ccccc3Cc3ccccc3N12` (stereo not given) | parasite line B | 11.22 | inhibitor, single point |
| 39 | `NC1=NCC2c3ccccc3Cc3ccccc3N12` (stereo not given) | CP329 | 8.492 | inhibitor, single point |
| 40 | `CC1(C)OC(=O)NC1=O` | CP260 | 10 | inhibitor, single point |
| 41 | `CC1(C)OC(=O)NC1=O` | CP215 | 0.0213 | inhibitor, partial curve, poor fit |
| 42 | `CC(C)NCC(O)COc1ccc(COCCOC(C)C)cc1` (stereo not given) | CP260 | 11.22 | inhibitor, single point |
| 43 | `CC(C)NCC(O)COc1ccc(COCCOC(C)C)cc1` (stereo not given) | TAB109 | 3.548 | inhibitor, single point |
| 44 | `CC1(COc2ccc(CC3SC(=O)NC3=O)cc2)CCCCC1` (stereo not given) | CP247 | 8.912 | inhibitor, single point |
| 45 | `CC1(COc2ccc(CC3SC(=O)NC3=O)cc2)CCCCC1` (stereo not given) | CP297 | 16.94 | inhibitor, partial curve, poor fit |
| 46 | `CC1=C(C(=O)OC(C)C)C(c2cccc([N+](=O)[O-])c2)C(C(=O)OC2CN(C(c3ccccc3)c3ccccc3)C2)=C(N)N1` (stereo not given) | JCK | 10 | inhibitor, single point |
| 47 | `CC1OC(OC2CCC3(C)C(CCC4C3CC(O)C3(C)C(C5=CC(=O)OC5)CCC43O)C2)CC(O)C1OC1CC(O)C(OC2CC(O)C(OC3OC(CO)C(O)C(O)C3O)C(C)O2)C(C)O1` (stereo not given) | PC26 | 0.12 | inhibitor, full curve |
| 48 | `CC(C)(C(=O)c1cccnc1)c1cccnc1` | 7G8 | 3.162 | inhibitor, single point |
| 49 | `CC(C)[C@H](N)C(=O)OCCOCn1cnc2c(=O)[nH]c(N)nc21` | 7G8 | 10 | inhibitor, single point |
| 50 | `O=S(=O)(O)O` | CP215 | 19.01 | inhibitor, single point |
| 51 | `O=S(=O)(O)O` | 3D7 | 3.548 | inhibitor, single point |
| 52 | `O=S(=O)(O)O` | CP266 | 1.694 | activator, partial curve, poor fit |
| 53 | `O=S(=O)(O)O` | PC49 | 0.5012 | inhibitor, single point |
| 54 | `CN(C)CCc1ccc(O)cc1` | CP266 | 1.694 | inhibitor, partial curve, poor fit |
| 55 | `C[C@]12CCC3C(CCC4=C(Cl)C(=O)CC[C@@]43C)C1CCC2O` (stereo not given in full) | 7G8 | 14.13 | inhibitor, partial curve |

The first 4 entries again:

- CCCCC(CC)CN=C(N)NC(N)=NCCCCCCN=C(N)NC(N)=NCC(CC)CCCC (stereo not given) [CP266] | potency 2.133 µM (inhibitor, partial curve)
- C1CCC(NC2CCCCC2)CC1 [CP256] | potency 17.78 µM (inhibitor, single point)
- CCCCCCC(=O)CCCCCC/C=C/C[C@@H](O)[C@H](O)[C@@](N)(CO)C(=O)O [CP250] | potency 1.995 µM (inhibitor, single point)
- CCCCCCC(=O)CCCCCC/C=C/C[C@@H](O)[C@H](O)[C@@](N)(CO)C(=O)O [W2] | potency 0.0953 µM (inhibitor, full curve, poor fit)

Data taken from PubChem BioAssay AID504749, deposited by NCATS (2011).